Measurements taken from the supplement of paper PMC8728848.
This is one part of the list.

Columns and labels:
Assay in all cases: glycan array binding signal (z-score within array); higher = stronger binding
Details in all cases: glycan notation: IUPAC condensed, linker removed
[1] = target: Gal(b1-3)GlcNAc(b1-2)Man(a1-3)[Gal(b1-3)GlcNAc(b1-2)Man(a1-6)]Man(b1-4)GlcNAc(b1-4)GlcNAc
Summary of the method: (§1)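 From the Consortium for Functional Glycomics database, 3228 arrays were curated, keeping only those whose protein sequence was available. Binding is given as a within-array Z-score averaged across arrays sharing a protein sequence and across linkers. Negative Z-scores can be read as non-binding.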

[2] = target: Gal(b1-3)GlcNAc(b1-2)Man(a1-3)[Gal(b1-3)GlcNAc(b1-2)Man(a1-6)]Man(b1-4)GlcNAc(b1-4)[Fuc(a1-6)]GlcNAc
Summary of the method: as §1

[3] = target: Gal(b1-3)GlcNAc(b1-2)Man(a1-3)[GlcNAc(b1-4)][Gal(b1-3)GlcNAc(b1-2)Man(a1-6)]Man(b1-4)GlcNAc(b1-4)GlcNAc
Summary of the method: as §1

[4] = target: Gal(b1-3)GlcNAc(b1-2)[Gal(b1-3)GlcNAc(b1-6)]Man(a1-6)[Gal(b1-3)GlcNAc(b1-2)Man(a1-3)]Man(b1-4)GlcNAc(b1-4)GlcNAc
Summary of the method: as §1

[5] = target: Gal(b1-3)GlcNAc(b1-3)Gal(b1-3)GlcNAc
Summary of the method: as §1

[6] = target: Gal(b1-3)GlcNAc(b1-3)Gal(b1-4)Glc
Summary of the method: as §1

[7] = target: Gal(b1-3)GlcNAc(b1-3)Gal(b1-4)GlcNAc
Summary of the method: as §1

[8] = target: Gal(b1-3)GlcNAc(b1-3)Gal(b1-4)GlcNAc(b1-2)Man(a1-3)[Gal(b1-3)GlcNAc(b1-3)Gal(b1-4)GlcNAc(b1-2)Man(a1-6)]Man(b1-4)GlcNAc(b1-4)GlcNAc
Summary of the method: as §1

[9] = target: Gal(b1-3)GlcNAc(b1-3)Gal(b1-4)GlcNAc(b1-2)[Gal(b1-3)GlcNAc(b1-3)Gal(b1-4)GlcNAc(b1-6)]Man(a1-6)[Gal(b1-3)GlcNAc(b1-3)Gal(b1-4)GlcNAc(b1-2)Man(a1-3)]Man(b1-4)GlcNAc(b1-4)[Fuc(a1-6)]GlcNAc
Summary of the method: as §1

[10] = target: Gal(b1-3)GlcNAc(b1-3)Gal(b1-4)GlcNAc(b1-3)Gal(b1-4)GlcNAc(b1-2)[Gal(b1-3)GlcNAc(b1-3)Gal(b1-4)GlcNAc(b1-3)Gal(b1-4)GlcNAc(b1-6)]Man(a1-6)[Gal(b1-3)GlcNAc(b1-3)Gal(b1-4)GlcNAc(b1-3)Gal(b1-4)GlcNAc(b1-2)Man(a1-3)]Man(b1-4)GlcNAc(b1-4)[Fuc(a1-6)]GlcNAc
Summary of the method: as §1

[11] = target: Gal(b1-3)GlcNAc(b1-3)Gal(b1-4)GlcNAc(b1-6)[Gal(b1-3)GlcNAc(b1-3)]Gal(b1-4)Glc
Summary of the method: as §1

[12] = target: Gal(b1-3)GlcNAc(b1-3)Gal(b1-4)[Fuc(a1-3)]GlcNAc
Summary of the method: as §1

[13] = target: Gal(b1-3)GlcNAc(b1-3)Gal(b1-4)[Fuc(a1-3)]GlcNAc(b1-6)[Gal(b1-3)GlcNAc(b1-3)]Gal(b1-4)Glc
Summary of the method: as §1

[14] = target: Gal(b1-3)GlcNAc(b1-3)GalNAc
Summary of the method: as §1

[15] = target: Gal(b1-3)GlcNAc(b1-6)Gal(b1-4)GlcNAc
Summary of the method: as §1

[16] = target: Gal(b1-3)GlcNAc(b1-6)GalNAc
Summary of the method: as §1

[17] = target: Gal(b1-3)GlcNAc(b1-6)[Gal(b1-3)]GalNAc
Summary of the method: as §1

Gal(b1-3)GlcNAc6S = target: Gal(b1-3)GlcNAc6S
Summary of the method: as §1

[18] = target: Gal(b1-3)[Fuc(a1-4)]GlcNAc
Summary of the method: as §1

[19] = target: Gal(b1-3)[Fuc(a1-4)]GlcNAc(b1-2)Man
Summary of the method: as §1

[20] = target: Gal(b1-3)[Fuc(a1-4)]GlcNAc(b1-2)Man(a1-3)[Gal(b1-3)[Fuc(a1-4)]GlcNAc(b1-2)Man(a1-6)]Man(b1-4)GlcNAc(b1-4)[Fuc(a1-6)]GlcNAc
Summary of the method: as §1

[21] = target: Gal(b1-3)[Fuc(a1-4)]GlcNAc(b1-3)Gal(b1-3)[Fuc(a1-4)]GlcNAc
Summary of the method: as §1

[22] = target: Gal(b1-3)[Fuc(a1-4)]GlcNAc(b1-3)Gal(b1-4)[Fuc(a1-3)]GlcNAc
Summary of the method: as §1

[23] = target: Gal(b1-3)[Fuc(a1-4)]GlcNAc(b1-6)GalNAc
Summary of the method: as §1

[24] = target: Gal(b1-3)[GlcNAc(b1-6)]GalNAc
Summary of the method: as §1

[25] = target: Gal(b1-3)[Neu5Ac(a2-6)]GalNAc
Summary of the method: as §1

[26] = target: Gal(b1-3)[Neu5Ac(a2-6)]GlcNAc(b1-4)Gal(b1-4)Glc
Summary of the method: as §1

[27] = target: Gal(b1-3)[Neu5Ac(b2-6)]GalNAc
Summary of the method: as §1

Gal(b1-4)Gal = target: Gal(b1-4)Gal
Summary of the method: as §1

[28] = target: Gal(b1-4)GalNAc(a1-3)[Fuc(a1-2)]Gal(b1-4)GlcNAc
Summary of the method: as §1

[29] = target: Gal(b1-4)GalNAc(b1-3)[Fuc(a1-2)]Gal(b1-4)GlcNAc
Summary of the method: as §1

Gal(b1-4)Glc = target: Gal(b1-4)Glc
Summary of the method: as §1

Gal(b1-4)Glc6S = target: Gal(b1-4)Glc6S
Summary of the method: as §1

Gal(b1-4)GlcNAc = target: Gal(b1-4)GlcNAc
Summary of the method: as §1

[30] = target: Gal(b1-4)GlcNAc(a1-6)Gal(b1-4)GlcNAc
Summary of the method: as §1

Gal(b1-4)GlcNAc(b1-2)Man = target: Gal(b1-4)GlcNAc(b1-2)Man
Summary of the method: as §1

[31] = target: Gal(b1-4)GlcNAc(b1-2)Man(a1-3)Man(b1-4)GlcNAc(b1-4)GlcNAc
Summary of the method: as §1

[32] = target: Gal(b1-4)GlcNAc(b1-2)Man(a1-3)[Gal(b1-4)GlcNAc(b1-2)Man(a1-6)]Man(b1-4)GlcNAc(b1-4)GlcNAc
Summary of the method: as §1

[33] = target: Gal(b1-4)GlcNAc(b1-2)Man(a1-3)[Gal(b1-4)GlcNAc(b1-2)Man(a1-6)]Man(b1-4)GlcNAc(b1-4)[Fuc(a1-6)]GlcNAc
Summary of the method: as §1

[34] = target: Gal(b1-4)GlcNAc(b1-2)Man(a1-3)[Gal(b1-4)GlcNAc(b1-2)Man(a1-6)][Gal(b1-4)GlcNAc(b1-4)]Man(b1-4)GlcNAc(b1-4)[Fuc(a1-6)]GlcNAc
Summary of the method: as §1

[35] = target: Gal(b1-4)GlcNAc(b1-2)Man(a1-3)[Gal(b1-4)GlcNAc(b1-2)Man(a1-6)][GlcNAc(b1-4)]Man(b1-4)GlcNAc(b1-4)[Fuc(a1-6)]GlcNAc
Summary of the method: as §1

[36] = target: Gal(b1-4)GlcNAc(b1-2)Man(a1-3)[GlcNAc(b1-2)Man(a1-6)]Man(b1-4)GlcNAc(b1-4)GlcNAc
Summary of the method: as §1

[37] = target: Gal(b1-4)GlcNAc(b1-2)Man(a1-3)[GlcNAc(b1-4)][Gal(b1-4)GlcNAc(b1-2)Man(a1-6)]Man(b1-4)GlcNAc(b1-4)GlcNAc
Summary of the method: as §1

[38] = target: Gal(b1-4)GlcNAc(b1-2)Man(a1-3)[Man(a1-6)]Man(b1-4)GlcNAc(b1-4)GlcNAc
Summary of the method: as §1

[39] = target: Gal(b1-4)GlcNAc(b1-2)Man(a1-6)Man(b1-4)GlcNAc(b1-4)GlcNAc
Summary of the method: as §1

B1: CD34 (Homo sapiens), P28906 (protein)
chain: MGSSHHHHHHSSGLVPRGSHMSTSLATSPTKPYTSSSPILSDIKAEIKCSGIREVKLTQGICLEQNKTSSCAEFKKDRGEGLARVLCGEEQADADAGAQVCSLLLAQSEVRPQCLLLVLANRTEISSKLQLMKKHQSDLKKLGILDFTEQDVASHQSYSQKT
glycan array binding signal (z-score) [1]: 1.38
glycan array binding signal (z-score) [2]: 0.315
glycan array binding signal (z-score) [3]: 0.118
glycan array binding signal (z-score) [4]: 0.384
glycan array binding signal (z-score) [5]: -0.917
glycan array binding signal (z-score) [6]: -0.144
glycan array binding signal (z-score) [7]: -0.549
glycan array binding signal (z-score) [8]: -0.544
glycan array binding signal (z-score) [9]: 0.913
glycan array binding signal (z-score) [10]: -0.213
glycan array binding signal (z-score) [11]: -0.461
glycan array binding signal (z-score) [12]: 0.169
glycan array binding signal (z-score) [13]: -0.812
glycan array binding signal (z-score) [14]: -0.777
glycan array binding signal (z-score) [15]: -0.686
glycan array binding signal (z-score) [16]: 0.565
glycan array binding signal (z-score) [17]: -0.247
glycan array binding signal (z-score) (Gal(b1-3)GlcNAc6S): 0.292
glycan array binding signal (z-score) [18]: -0.182
glycan array binding signal (z-score) [19]: 0.136
glycan array binding signal (z-score) [20]: -0.104
glycan array binding signal (z-score) [21]: -1.06
glycan array binding signal (z-score) [22]: -0.356
glycan array binding signal (z-score) [23]: 0.092
glycan array binding signal (z-score) [24]: -0.939
glycan array binding signal (z-score) [25]: -0.495
glycan array binding signal (z-score) [26]: -0.373
glycan array binding signal (z-score) [27]: -0.628
glycan array binding signal (z-score) (Gal(b1-4)Gal): 0.236
glycan array binding signal (z-score) [28]: 0.152
glycan array binding signal (z-score) [29]: -0.791
glycan array binding signal (z-score) (Gal(b1-4)Glc): -0.261
glycan array binding signal (z-score) (Gal(b1-4)Glc6S): 0.445
glycan array binding signal (z-score) (Gal(b1-4)GlcNAc): 0.128
glycan array binding signal (z-score) [30]: 0.103
glycan array binding signal (z-score) (Gal(b1-4)GlcNAc(b1-2)Man): 1.38
glycan array binding signal (z-score) [31]: 0.649
glycan array binding signal (z-score) [32]: -0.847
glycan array binding signal (z-score) [33]: -0.772
glycan array binding signal (z-score) [34]: -1
glycan array binding signal (z-score) [35]: -0.754
glycan array binding signal (z-score) [36]: -1.28
glycan array binding signal (z-score) [37]: -0.579
glycan array binding signal (z-score) [38]: -0.73
glycan array binding signal (z-score) [39]: 0.031
